Some of the results follow.
What was measured:
Assay in all cases: glycan array binding signal (z-score within array); higher = stronger binding
Conditions in all cases: glycan notation: IUPAC condensed, linker removed
[1] = target: Neu5Ac(a2-3)Gal(b1-4)[Fuc(a1-3)]GlcNAc(b1-3)GalNAc
Outline: (§1)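 Glycan array data were curated from 3228 arrays in the Consortium for Functional Glycomics database and kept only where the protein sequence was available. Glycan names were converted to IUPAC-condensed notation, and columns mapping to the same glycan were averaged. The binding signal is a within-array Z-score, averaged across arrays of the same protein sequence at different concentrations or buffers and across linkers. Negative Z-scores can be read as non-binding.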

[2] = target: Neu5Ac(a2-3)Gal(b1-4)[Fuc(a1-3)]GlcNAc(b1-6)[Gal(b1-3)]GalNAc
Outline: as §1

[3] = target: Neu5Ac(a2-3)Gal(b1-4)[Fuc(a1-3)]GlcNAc(b1-6)[Neu5Ac(a2-3)Gal(b1-3)]GalNAc
Outline: as §1

[4] = target: Neu5Ac(a2-3)Gal(b1-4)[Fuc(a1-3)]GlcNAc6S
Outline: as §1

[5] = target: Neu5Ac(a2-3)Gal6S(b1-4)GlcNAc
Outline: as §1

[6] = target: Neu5Ac(a2-3)Gal6S(b1-4)[Fuc(a1-3)]GlcNAc
Outline: as §1

[7] = target: Neu5Ac(a2-3)GalNAc
Outline: as §1

[8] = target: Neu5Ac(a2-3)GalNAc(b1-4)GlcNAc
Outline: as §1

[9] = target: Neu5Ac(a2-3)[GalNAc(b1-4)]Gal(b1-4)Glc
Outline: as §1

[10] = target: Neu5Ac(a2-3)[GalNAc(b1-4)]Gal(b1-4)GlcNAc
Outline: as §1

[11] = target: Neu5Ac(a2-3)[GalNAc(b1-4)]Gal(b1-4)GlcNAc(b1-3)GalNAc
Outline: as §1

[12] = target: Neu5Ac(a2-3)[Neu5Ac(a2-6)]GalNAc
Outline: as §1

[13] = target: Neu5Ac(a2-6)Gal
Outline: as §1

[14] = target: Neu5Ac(a2-6)Gal(b1-3)GlcNAc(b1-3)[Gal(b1-4)GlcNAc(b1-6)]Gal(b1-4)Glc
Outline: as §1

[15] = target: Neu5Ac(a2-6)Gal(b1-4)Glc
Outline: as §1

[16] = target: Neu5Ac(a2-6)Gal(b1-4)GlcNAc
Outline: as §1

[17] = target: Neu5Ac(a2-6)Gal(b1-4)GlcNAc(b1-2)Man
Outline: as §1

[18] = target: Neu5Ac(a2-6)Gal(b1-4)GlcNAc(b1-2)Man(a1-3)Man(b1-4)GlcNAc(b1-4)GlcNAc
Outline: as §1

[19] = target: Neu5Ac(a2-6)Gal(b1-4)GlcNAc(b1-2)Man(a1-3)[Gal(b1-4)GlcNAc(b1-2)Man(a1-6)]Man(b1-4)GlcNAc(b1-4)GlcNAc
Outline: as §1

[20] = target: Neu5Ac(a2-6)Gal(b1-4)GlcNAc(b1-2)Man(a1-3)[GlcNAc(b1-2)Man(a1-6)]Man(b1-4)GlcNAc(b1-4)GlcNAc
Outline: as §1

[21] = target: Neu5Ac(a2-6)Gal(b1-4)GlcNAc(b1-2)Man(a1-3)[GlcNAc(b1-2)Man(b1-4)GlcNAc(b1-2)Man(a1-6)]Man(b1-4)GlcNAc(b1-4)GlcNAc
Outline: as §1

[22] = target: Neu5Ac(a2-6)Gal(b1-4)GlcNAc(b1-2)Man(a1-3)[GlcNAc(b1-4)][Neu5Ac(a2-6)Gal(b1-4)GlcNAc(b1-2)Man(a1-6)]Man(b1-4)GlcNAc(b1-4)GlcNAc
Outline: as §1

[23] = target: Neu5Ac(a2-6)Gal(b1-4)GlcNAc(b1-2)Man(a1-3)[Man(a1-6)]Man(b1-4)GlcNAc(b1-4)GlcNAc
Outline: as §1

[24] = target: Neu5Ac(a2-6)Gal(b1-4)GlcNAc(b1-2)Man(a1-3)[Neu5Ac(a2-3)Gal(b1-4)GlcNAc(b1-2)Man(a1-6)]Man(b1-4)GlcNAc(b1-4)GlcNAc
Outline: as §1

[25] = target: Neu5Ac(a2-6)Gal(b1-4)GlcNAc(b1-2)Man(a1-3)[Neu5Ac(a2-6)Gal(b1-4)GlcNAc(b1-2)Man(a1-6)]Man(b1-4)GlcNAc(b1-4)GlcNAc
Outline: as §1

[26] = target: Neu5Ac(a2-6)Gal(b1-4)GlcNAc(b1-2)Man(a1-3)[Neu5Ac(a2-6)Gal(b1-4)GlcNAc(b1-2)Man(a1-6)]Man(b1-4)GlcNAc(b1-4)[Fuc(a1-6)]GlcNAc
Outline: as §1

[27] = target: Neu5Ac(a2-6)Gal(b1-4)GlcNAc(b1-2)Man(a1-6)Man(b1-4)GlcNAc(b1-4)GlcNAc
Outline: as §1

[28] = target: Neu5Ac(a2-6)Gal(b1-4)GlcNAc(b1-2)Man(a1-6)[Gal(b1-4)GlcNAc(b1-2)Man(a1-3)]Man(b1-4)GlcNAc(b1-4)GlcNAc
Outline: as §1

[29] = target: Neu5Ac(a2-6)Gal(b1-4)GlcNAc(b1-2)Man(a1-6)[GlcNAc(b1-2)Man(a1-3)]Man(b1-4)GlcNAc(b1-4)GlcNAc
Outline: as §1

[30] = target: Neu5Ac(a2-6)Gal(b1-4)GlcNAc(b1-2)Man(a1-6)[Man(a1-3)]Man(b1-4)GlcNAc(b1-4)GlcNAc
Outline: as §1

[31] = target: Neu5Ac(a2-6)Gal(b1-4)GlcNAc(b1-2)[Neu5Ac(a2-6)Gal(b1-4)GlcNAc(b1-4)]Man(a1-3)[GlcNAc(b1-4)][Neu5Ac(a2-6)Gal(b1-4)GlcNAc(b1-2)[Neu5Ac(a2-6)Gal(b1-4)GlcNAc(b1-6)]Man(a1-6)]Man(b1-4)GlcNAc(b1-4)GlcNAc
Outline: as §1

[32] = target: Neu5Ac(a2-6)Gal(b1-4)GlcNAc(b1-2)[Neu5Ac(a2-6)Gal(b1-4)GlcNAc(b1-4)]Man(a1-3)[GlcNAc(b1-4)][Neu5Ac(a2-6)Gal(b1-4)GlcNAc(b1-4)Man(a1-6)]Man(b1-4)GlcNAc(b1-4)GlcNAc
Outline: as §1

[33] = target: Neu5Ac(a2-6)Gal(b1-4)GlcNAc(b1-2)[Neu5Ac(a2-6)Gal(b1-4)GlcNAc(b1-6)]Man(a1-6)[Neu5Ac(a2-6)Gal(b1-4)GlcNAc(b1-2)Man(a1-3)][GlcNAc(b1-4)]Man(b1-4)GlcNAc(b1-4)GlcNAc
Outline: as §1

[34] = target: Neu5Ac(a2-6)Gal(b1-4)GlcNAc(b1-3)Gal(b1-3)GlcNAc
Outline: as §1

[35] = target: Neu5Ac(a2-6)Gal(b1-4)GlcNAc(b1-3)Gal(b1-4)GlcNAc
Outline: as §1

[36] = target: Neu5Ac(a2-6)Gal(b1-4)GlcNAc(b1-3)Gal(b1-4)GlcNAc(b1-2)Man(a1-3)[Neu5Ac(a2-6)Gal(b1-4)GlcNAc(b1-3)Gal(b1-4)GlcNAc(b1-2)Man(a1-6)]GalNAc
Outline: as §1

[37] = target: Neu5Ac(a2-6)Gal(b1-4)GlcNAc(b1-3)Gal(b1-4)GlcNAc(b1-3)Gal(b1-4)GlcNAc
Outline: as §1

[38] = target: Neu5Ac(a2-6)Gal(b1-4)GlcNAc(b1-3)Gal(b1-4)GlcNAc(b1-3)Gal(b1-4)GlcNAc(b1-2)Man(a1-3)[Neu5Ac(a2-6)Gal(b1-4)GlcNAc(b1-3)Gal(b1-4)GlcNAc(b1-3)Gal(b1-4)GlcNAc(b1-2)Man(a1-6)]GalNAc
Outline: as §1

[39] = target: Neu5Ac(a2-6)Gal(b1-4)GlcNAc(b1-3)Gal(b1-4)GlcNAc(b1-3)GalNAc
Outline: as §1

[40] = target: Neu5Ac(a2-6)Gal(b1-4)GlcNAc(b1-3)Gal(b1-4)GlcNAc(b1-3)[Neu5Ac(a2-6)Gal(b1-4)GlcNAc(b1-3)Gal(b1-4)GlcNAc(b1-6)]GalNAc
Outline: as §1

[41] = target: Neu5Ac(a2-6)Gal(b1-4)GlcNAc(b1-3)Gal(b1-4)GlcNAc(b1-6)[Gal(b1-3)]GalNAc
Outline: as §1

[42] = target: Neu5Ac(a2-6)Gal(b1-4)GlcNAc(b1-3)Gal(b1-4)[Fuc(a1-3)]GlcNAc(b1-3)Gal(b1-4)[Fuc(a1-3)]GlcNAc
Outline: as §1

## KISKRILTGKK [NK11 (Sus scrofa)]
[1]
  glycan array binding signal (z-score): -0.082
[2]
  glycan array binding signal (z-score): 0.805
[3]
  glycan array binding signal (z-score): -0.509
[4]
  glycan array binding signal (z-score): 3.52
[5]
  glycan array binding signal (z-score): 0.01
[6]
  glycan array binding signal (z-score): -0.648
[7]
  glycan array binding signal (z-score): 0.489
[8]
  glycan array binding signal (z-score): -0.092
[9]
  glycan array binding signal (z-score): 0.631
[10]
  glycan array binding signal (z-score): -0.361
[11]
  glycan array binding signal (z-score): 0.366
[12]
  glycan array binding signal (z-score): 0.401
[13]
  glycan array binding signal (z-score): 0.411
[14]
  glycan array binding signal (z-score): -0.989
[15]
  glycan array binding signal (z-score): -0.083
[16]
  glycan array binding signal (z-score): -0.251
[17]
  glycan array binding signal (z-score): 0.52
[18]
  glycan array binding signal (z-score): 0.127
[19]
  glycan array binding signal (z-score): 0.065
[20]
  glycan array binding signal (z-score): -0.159
[21]
  glycan array binding signal (z-score): 2.33
[22]
  glycan array binding signal (z-score): 0.699
[23]
  glycan array binding signal (z-score): 1.52
[24]
  glycan array binding signal (z-score): 0.829
[25]
  glycan array binding signal (z-score): 0.33
[26]
  glycan array binding signal (z-score): 1.51
[27]
  glycan array binding signal (z-score): 0.644
[28]
  glycan array binding signal (z-score): -0.315
[29]
  glycan array binding signal (z-score): -0.149
[30]
  glycan array binding signal (z-score): 0.216
[31]
  glycan array binding signal (z-score): -1.88
[32]
  glycan array binding signal (z-score): 0.035
[33]
  glycan array binding signal (z-score): 0.24
[34]
  glycan array binding signal (z-score): 0.145
[35]
  glycan array binding signal (z-score): -0.531
[36]
  glycan array binding signal (z-score): -1.13
[37]
  glycan array binding signal (z-score): 0.163
[38]
  glycan array binding signal (z-score): 0.477
[39]
  glycan array binding signal (z-score): -0.801
[40]
  glycan array binding signal (z-score): 2.39
[41]
  glycan array binding signal (z-score): -0.128
[42]
  glycan array binding signal (z-score): -0.044

Source: the supplement of paper PMC8728848
